According to patent publication US20200102349A1, “PEPTIDE REAGENTS AND METHODS FOR DETECTION AND TARGETING OF DYSPLASIA, EARLY CANCER AND CANCER” (THE REGENTS OF THE UNIVERSITY OF MICHIGAN, priority 2014, published 2020):

Tested on: human colonic dysplasia
Experiment: Binding of EGFR peptide and antibody to human colonic dysplasia specimens, confocal microscopy
Conditions: merged image with AF488-labeled anti-EGFR
Description: For the in vivo fluorescence images of mouse colon, the T/B ratios for flat dysplasia and polyps were log-transformed to improve normality. The fold-change between classification pairs was estimated using the anti-log of the difference in the log-transformed data. Differences in results between the experimental and control peptides were evaluated on t-test. *P<0.05 was considered significant. Similar methods were used to evaluate the ex vivo fluorescence images of human colonic specimens. The results were plotted on a receiver-operator characteristic (ROC) curve. Co-localization of peptide and antibody binding was evaluated on Pearson's correlation coefficient. All analyses were performed using custom Matlab software (MathWorks Inc).
Specimens of human colonic mucosa were obtained from biopsy during routine colonoscopy, frozen in OCT, cut in 10 μm sections, and incubated with QRH*-Cy5.5 (5 μM) in 1×PBS for 10 min at RT. The sections were washed 3× with PBS and incubated overnight at 4° C. with 1:1000 dilution of primary monoclonal rabbit anti-EGFR antibody (Cell Signaling Technology, #4267, isotype IgG). […] Confocal fluorescence images were collected with DAPI, FITC and Cy5.5 filters with 20× objective (Leica TCS SP5 Microsystems). The mean fluorescence intensities from 3 boxes (dimensions of 30×30 μm2) located completely within the surface epithelium of each specimen were measured. […]

For “QRHKPRE (SEQ ID NO: 1) with Cy5.5 fluorophore attached via a GGGSK linker (SEQ ID NO: 18) on the C-terminus [QRH*-Cy5.5]”, the “co-localization of peptide and antibody binding (Pearson's correlation coefficient)” value was 0.71.
